These are yes or no findings as the source states them, for the method shown. Binding calls can cover weak binding; strength is not graded here. Where a sequence is shown, tags or fusion partners need not be part of it. Binding seen in cells or lysates may run through a third protein. Blank lines part the entries; values can stand above or below the binder they belong to.
Tests used:
[1] = target: FLAG-tagged UNC-45 (UNC-45^FLAG) (Caenorhabditis elegans); assay: GST pull-down
[2] = target: FLAG-tagged UNC-45 (UNC-45^FLAG) (Caenorhabditis elegans); assay: summary sentence of Example 7 on the earlier pull-down
[3] = target: FLAG-tagged UNC-45 (UNC-45^FLAG) (Caenorhabditis elegans); assay: GST pull-down with glutathione-Sepharose beads

- binding [1]: binds
- binding [2]: binds
- binding [3]: binds
B1: GST-CHN-1 (enzyme, not shown: a dimerising Fc or GST)
chain: MSSGAEQHNTNGKKCYMNKRYDDAVDHYSKAIKVNPLPKYYQNRAMCYFQLNNLKMTEEDCKRALELSPNEVKPLYFLGNVFLQSKKYSEAISCLSKALYHNAVITNAPDIENALKRARHQKYEEEESKRIVQDVEFHTYLESLIEKDRQENSENPEELQRADMAKKRLTELTLATQEKRQNREVPEMLCGKITLELMKEPVIVPSGITYDREEIVQHLRRIGHFDPVTRKPLTENEIIPNYALKEVIEKFLDDNPWAKYEPGGMV

- binding [3]: binds
B2: GST-UFD-2 (enzyme, Caenorhabditis elegans, UniProt Q09349 1-984, looked up, not shown: a dimerising Fc or GST)
chain: MIEDEKAGLQPMDISDASVFFFQADVESKDFLTSLFDCEGKSDDRMLRYADAIIDVQNLNFDVSPQCLQSNIAEIITKFVLLSQDGSRRGLSRSFNFIDPDIIAGCREEDAIEFLLINFVRCHHELGKSGTSNCYKKTLESTRKAVFSVFVMIQRGYLESQLRSQHASLVFTKRLLEDTVSNVFLRTLVEYLASTDECDEDAITETFNPIFGILRSGIICQRFEDNKDEIVRQILRVMNLLLSIRLPSNGPRPLSNLLVNREDFLPTPSEKIQGREFGLMSFLGPFFSYGLESSARRPNHRVFVDCEEDARKYDGSVNTEQKLYFQRMDPIRTMLHQLMLPLASDQGSRNKTLRWIATIISTNDIRTRSHYDPSDVLCDHYMTNFLSVMYMFSEKIDLSKIIVDYPFLPSSLINISKETRLKMDESGAVAFASQFADRPDEYHFSTVCFFLTIAAQRLVIPPLMNQISEYSRHLKELKHKINALKEKLNTVSGFERAEVEKKLNYETEHWKLMSRHLLCVKTQAQDPALMASSMDFVDKQMKFILNLLCDNLDLLGDDSQLPTEVSQMFCALPEYFLEDALDFYIFAISNGMKLLMERNADWISRLTVLFTQYHYIKSPFLVSKLVRVLSSIQPPLWFNVVRLRMAQENLLMCMIKFYSDFEDNGDFYEKFNVRGNIQYMLEKMEEDMFYKGKFMDMARECGAEFIRFVNMVINDATWCIDESLSGLKSIHDVEKKMANKVEWDNTDQEIRNQDLGVYEEAKRKVKGWLGTAKSNLKLLLSITVNSPEPFRTPVLGERLAAMLNHNLSQLIGSKASELKVKDPRSYGWEPREFVSLLISIYLKLNMPAFVKYIAYDERTYSPEFFHNAIECMRKNSIVGFSQLESFEHLAEDVKKEYEAKAELEEEYDDVPEEFKDPIMDAIMVDPVKLPSGHVMDRAVIERHLLSTPNNPFNRAPLSHNELSPDSELKAKIQEWICQKRNSKK

— patent US20090053196A1
